Measurements as given in US6734139B1, “N-aryl-uracile-based herbicides” (priority 1999, dated 2004).
At least one read-out could not be matched to a standard name with certainty.

System: Abutilon
Experiment: Pre-emergence test (herbicidal action, Colby): Abutilon
Assay type: in vivo
Settings: 8 g of a.i./ha

Work on `CCS(=O)(=O)N(C(=O)C(C)(C)C)c1cc(-n2c(=O)cc(C(F)(F)F)n(C)c2=O)c(F)cc1C#N` [I-3, N-[2-cyano-4-fluoro-5-(3-methyl-2,6-dioxo-4-trifluoromethyl-3,6-dihydro-1(2H)-pyrimidinyl)-phenyl]-N-(2,2-dimethyl-propanoyl)-1-ethanesulphonamide] yielded an Abutilon of 40%.
